According to PubChem BioAssay (EPA / NIEHS):
Where “and” joins values, the source holds several entries; their conditions need not be identical. Equal values may be shown once. The inconclusive results got no clear call from the source; some entries with a clear call stand among them for comparison. Potencies of inconclusive entries are doubtful fits and often do not repeat. Calls of active or inactive are those of the source. The calls were made as follows: active = hit-call score of the fitted dose curve at least 0.9, where 1 is the maximum; inconclusive = response in the unintended direction; inactive = score below 0.9.

Chains of the proteins cited; added tags and fusions are not shown. Lines headed by an entry give the natural chain unless they say otherwise; changes in a name come on top.
UniProt P10827: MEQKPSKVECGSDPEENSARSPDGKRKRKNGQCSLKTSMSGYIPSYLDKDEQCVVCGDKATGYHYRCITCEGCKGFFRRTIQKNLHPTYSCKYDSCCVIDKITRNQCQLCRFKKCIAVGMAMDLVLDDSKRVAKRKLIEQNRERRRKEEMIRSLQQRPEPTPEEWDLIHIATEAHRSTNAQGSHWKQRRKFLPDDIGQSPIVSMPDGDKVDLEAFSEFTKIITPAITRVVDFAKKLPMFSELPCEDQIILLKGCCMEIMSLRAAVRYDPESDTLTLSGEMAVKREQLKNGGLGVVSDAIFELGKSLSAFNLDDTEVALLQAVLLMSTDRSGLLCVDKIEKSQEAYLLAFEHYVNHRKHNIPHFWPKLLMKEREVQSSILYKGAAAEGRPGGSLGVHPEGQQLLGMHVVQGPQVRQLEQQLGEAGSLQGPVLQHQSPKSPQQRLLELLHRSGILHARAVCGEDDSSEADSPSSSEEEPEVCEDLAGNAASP

biological target: human Thyroid Receptor alpha (THRa1), THRA (gene 7067) (UniProt P10827); assay: ATG_THRa1_TRANS: Attagene TRANS-FACTORIAL HepG2 Assay for human Thyroid Receptor alpha (THRa1) (AID 2283014)
Procedure: ATG_TRANS is a cell-based, multiplexed-readout assay that uses HepG2, a human liver cell line, with measurements taken at 24 hours after chemical dosing in a 24-well plate.ATG_THRa1_TRANS is one of 30 assay component(s) measured or calculated from the ATG_TRANS assay. It is designed to make measurements of mRNA induction, a form of inducible reporter, as detected with fluorescence intensity signals by Reverse transcription polymerase chain reaction (RT-PCR) and Capillary electrophoresis technology.Data from the assay component ATG_THRa1_TRANS was analyzed into 1 assay endpoint. This assay endpoint, ATG_THRa1_TRANS, was analyzed in the positive analysis fitting direction relative to DMSO as the negative control and baseline of activity. Using a type of inducible reporter, measures of mRNA for gain-of-signal activity can be used to understand the reporter gene at the transcription factor-level as they relate to the gene THRA. Furthermore, this assay endpoint can be referred to as a primary readout, because this assay has produced multiple assay endpoints where this one serves a reporter gene function. To generalize the intended target to other relatable targets, this assay endpoint is annotated to the nuclear receptor intended target family, where the subfamily is non-steroidal.
Human liver HepG2 cells are transiently transfected with multiple reporter transcription units (MRTUs) in 6-well plates using FuGene 6 reagent (Roche; 3 ml FuGene/1 mg DNA). The MRTU constructs are regulated by a cis-regulating element (promoter). […] A major difference between the CIS and TRANS system is that in CIS activities of endogenous TFs are measured, whereas the TRANS assay evaluates changes in activities of exogenous, chimeric NR-Gal4 proteins. […] At the end of 24 hour incubation, total RNA was isolated using TriZol reagent (Invitrogen). The isolated RNA is then reverse-transcribed using oligo(dT) primer and Mo-MLV reverse transcriptase (Invitrogen) with DNAse I (Ambion) treatment for 30 min. The one-tenth of the produced cDNA was amplified by PCR using Taq DNA polymerase (Invitrogen) and two reporter sequence-specific primers. The PCR products were fluorescently labeled by primer extension with 6-arboxyfluorescein (6-FAM) 5'-labeled reporter sequence-specific primer (2 min at 95 C, 20 s at 68 C and 10 min at 72 C) and these products were digested with 5U of HpaI (New England Biolabs) for 2h at 37 C. The fragments were purified using Qiaquick PCR columns (Qiagen), analyzed on an ABI 3130xL genetic analyzer (Applied Biosystems) with peak positions identified by using a set of X-rhodamine (ROX)-labeled MapMarker1000 molecular weight standards (BioVentures). The raw capillary electrophoresis data was processed using Attagraph software (Attagene).

Compound	AC50	outcome
CCC(CC)C(=O)O	inconclusive: 100 µM	
CC(=O)OCC(C)OC(C)=O (stereo not given)	inconclusive: 32.8 µM	
Cn1ccnc1		inactive
CCCCCOC(=O)COc1cc(N2C(=O)C3=C(CCCC3)C2=O)c(F)cc1Cl	inconclusive: 0.0129 µM	
OC1CCCC1		inactive
CCCCCCCCCCCCCOP(=O)(O)O	inconclusive: 17.3 µM	
CC(O)C(=O)O (stereo not given)	inconclusive: 50 µM and inconclusive: 182 µM	inactive
O=C=NCCCCCCN=C=O	inconclusive: 102 µM	
S=P(N1CC1)(N1CC1)N1CC1	inconclusive: 86 nM and inconclusive: 20.7 µM and inconclusive: 104 µM	
O=S1(=O)OC(c2ccc(O)cc2)(c2ccc(O)cc2)c2ccccc21		inactive
c1ccc(Sc2ccccc2)cc1		inactive
Cc1ccc(S(=O)(=O)O)cc1C	inconclusive: 100 µM	
O=C(OCc1ccccc1)c1ccc(O)cc1	inconclusive: 100 µM	
OCCCC(F)(F)C(F)(F)C(F)(F)C(F)(F)C(F)(F)C(F)(F)C(F)(F)F	inconclusive: 50 µM	
O=C(/C=C/c1ccc(O)cc1)CC(=O)/C=C/c1ccc(O)cc1		inactive
CN1CCN(c2ccccc2/C=C2\SCCN(c3ccc(Cl)c(Cl)c3)C2=O)CC1	inconclusive: 0.0649 µM	

Laid out differently: two of the compounds above.

| Compound | AC50 | outcome |
| --- | --- | --- |
| Cn1ccnc1 |  | inactive |
| CCCCCOC(=O)COc1cc(N2C(=O)C3=C(CCCC3)C2=O)c(F)cc1Cl | inconclusive: 0.0129 µM |  |

(listing goes on)

Compound	AC50	outcome
CC(=O)CC(N)=O	inconclusive: 100 µM	
C=Cc1ccc(O)c(OC)c1		inactive
C=C(C)[C@@H]1CCC2=CCC[C@@H](C)[C@]2(C)C1	inconclusive: 100 µM	
OC(Cn1cncn1)(Cn1cncn1)c1ccc(F)cc1F		inactive
Oc1ccc(-c2ccccc2)c(Cl)c1		inactive
O=c1n(CCO)c(=O)n(CCO)c(=O)n1CCO	inconclusive: 100 µM	
O=C(O)C1(C(=O)Nc2ccc(Cl)cc2Cl)CC1	inconclusive: 50 µM	
CCC(C)NC(N)=O (stereo not given)	inconclusive: 99.5 µM	
Cc1ccc(C(=O)c2ccccc2)cc1		inactive
CCCCCCCC/C=C\CCCCCCCC(=O)O		inactive
c1ccc2c(c1)CCC2	inconclusive: 100 µM	
CCn1c2ccccc2c2cc(N)ccc21		inactive
CCOC(=O)CCC(C)=O	inconclusive: 100 µM	
OCC(CO)n1cnc(-c2ccc(F)cc2)c1-c1ccnc(Oc2ccccc2)n1	inconclusive: 10.1 µM	
